The data set has as its system mouse LSCs. The data set is described as follows: RNA-seq of LSCs after ILC1 co-culture or IFN-γ treatment. It is filed as cell-based. Particulars: vs LSC alone, 3 days. The protocol: For mouse ILC1 RNA-sequencing, mouse ILC1s were sorted from the liver of normal mice or mice with AML using BD FACSAria™ Fusion. […] Total RNA was isolated from ILC1s or LSCs using a miRNeasy mini kit (QIAGEN). PolyA RNA-seq was performed in the Integrative Genomics Core of City of Hope National Medical Center. SMART-Seq® Ultra Low Input RNA Kit for Sequencing-v4 (Takara Bio) was used for getting double-strand cDNA from each sample with 2 ng of input total RNA. The resulting cDNA was sheared using a Covaris LE220 sonicator. The sheared DNA was used for to prepare a sequencing library, using a KAPA HyperPrep Kit. The final libraries were quantified using the Qubit Assay Kit (Thermo Fisher Scientific) and Bioanalyzer (Agilent). Sequencing was performed using the single-read mode of 51 cycles of read1 and 7 cycles of index read with V4 reagents on a Hiseq 2500 system (Illumina). Real-time analysis (RTA) 2.2.38 software was used to process the image analysis and base calling.
2,000 mouse LSCs were co-cultured with 1,000 ILC1s or treated with 1 ng/ml IFN-γ for 3 days, and then the LSCs were sorted using BD FACSAria Fusion. Total RNA of LSCs were isolated using miRNeasy mini kit (QIAGEN). […] The final libraries were quantified with qubit and bioanalyzer. The sequencing was performed with the single read mode of 51 cycles of read1 and 7 cycles of index read with V4 reagents on Hiseq2500. […]

Consider “recombinant murine IFN-γ: animal-free recombinant murine IFN-γ cytokine”, for which the “significantly downregulated LSC genes” value was 82 genes and the “significantly upregulated LSC genes” value is given as 320 genes.

The values are drawn from patent US20240082398A1, “METHODS OF PREPARING AND EXPANDING TYPE I INNATE LYMPHOID CELLS AND THERAPEUTIC USES THEREOF” (City of Hope, priority 2021, published 2024).
